From US5385941A, “Salts/ion pairs of non-steroidal anti-inflammatory drugs in various dosage forms” (Warner-Lambert Company, priority 1993, dated 1995)

Columns and labels:
[1] = Solubility in water at room temperature (excess compound, overnight shaking, filtration, HPLC)

| SMILES | R.T. Solubility (Solubility of MA/DPH in Water) ([1]; same methodology as Example II, Table 6) | solubility in polar organic solvents | aqueous solubility of DPH due to formation of the SA/DPH salt/ion-pair ([1]; compared with DPH base) | R.T. SOLUBILITY (Solubility of SA/DPH in Water) ([1]; overnight shaking, SA/DPH calculated from DPH concentration by HPLC, Table 3) |
| --- | --- | --- | --- | --- |
| CN(C)CCOC(c1ccccc1)c1ccccc1.Cc1ccc(Cl)c(Nc2ccccc2C(=O)O)c1Cl [MA/DPH, Meclofenamic acid-Diphenhydramine] | 97 µg/mL |  |  |  |
| CN(C)CCOC(c1ccccc1)c1ccccc1.O=C(O)c1ccccc1O [SA/DPH, Salicylic acid-Diphenhydramine salt] |  | soluble | marked increase | 2827 µg/mL |
